Test results published in patent US9978954B2, “Benzobis (thiadiazole) derivative, ink comprising same, and organic electronic device comprising same” (UBE INDUSTRIES, LTD., priority 2013, dated 2018).

Key:
[1] = Field-effect mobility of organic TFT, organic semiconductor layer by vacuum deposition, incl. after being left in the atmosphere; settings: drain voltage 100 V
[2] = Field-effect mobility of organic TFT, organic semiconductor layer by spin-coating
[3] = Field-effect mobility of organic TFT, organic semiconductor layer by drop-casting
[4] = HMDS-modified substrate, initial
[5] = ink 0.3 wt % in mesitylene heated at 130° C., PS substrate, no annealing, drain voltage 100 V
[6] = ink 0.3 wt % in mesitylene heated at 130° C., PVP substrate, heated at 180° C. for 35 minutes, drain voltage 100 V
[7] = ink 0.1 wt % in chloroform heated at 60° C., CYC substrate, heated at 240° C. for 35 minutes, drain voltage 20 V
[8] = ink 0.1 wt % in chloroform heated at 60° C., CYC substrate, heated at 240° C. for 35 minutes, drain voltage 100 V
[9] = ink 0.1 wt % in chloroform heated at 60° C., PVP substrate, heated at 180° C. for 35 minutes, drain voltage 100 V

## FC(F)(F)Oc1ccccc1-c1ccc(-c2c3c(c(-c4ccc(-c5ccccc5OC(F)(F)F)s4)c4nsnc24)N=S=N3)s1 [Compound (RR1), 4,8-bis[5-(2-(trifluoromethoxy)phenyl)thiophene-2-yl]benzo[1,2-c:4,5-c′]bis[1,2,5]thiadiazole, reference compound]
[1]; [4]
  field-effect mobility (μ): 6.4×10^−2 cm^2/Vs
[1]; PS substrate, initial
  field-effect mobility (μ): 1.7×10^−1 cm^2/Vs
[2]; [5]
  field-effect mobility (μ): 6.2×10^−5 cm^2/Vs
[2]; [6]
  field-effect mobility (μ): did not have the transistor characteristics

## CCCCCCCCCCCCc1cc(-c2ccc(-c3c4c(c(-c5ccc(-c6ccc(C#N)c(CCCCCCCCCCCC)c6)s5)c5nsnc35)N=S=N4)s2)ccc1C#N [Compound (C17), 4,8-bis[5-(4-cyano-3-dodecylphenyl)thiophene-2-yl]benzo[1,2-c:4,5-c′]bis[1,2,5]thiadiazole]
[2]; [7]
  field-effect mobility (μ): 1.1×10^0 cm^2/Vs
[2]; ink 0.1 wt % in chloroform heated at 60° C., CYC substrate, heated at 240° C. for 35 minutes, drain voltage 50 V
  field-effect mobility (μ): 2.2×10^0 cm^2/Vs
[2]; [8]
  field-effect mobility (μ): 3.1×10^0 cm^2/Vs
[2]; ink 0.1 wt % in chloroform heated at 60° C., PVP substrate, heated at 180° C. for 35 minutes, drain voltage 20 V
  field-effect mobility (μ): 8.8×10^−1 cm^2/Vs
[2]; ink 0.1 wt % in chloroform heated at 60° C., PVP substrate, heated at 180° C. for 35 minutes, drain voltage 50 V
  field-effect mobility (μ): 1.1×10^0 cm^2/Vs
[2]; [9]
  field-effect mobility (μ): 3.1×10^0 cm^2/Vs
[2]; ink 0.1 wt % in chloroform heated at 60° C., bare substrate, heated at 180° C. for 35 minutes, drain voltage 100 V
  field-effect mobility (μ): 2.3×10^0 cm^2/Vs
[3]; bottom gate-bottom contact, 0.12 wt % solution in 1-methylnaphthalene mixed 1:1 with dodecanol 200 μmol/L, PVP substrate, heated at 150° C. for 35 minutes, drain voltage 50 V
  field-effect mobility (μ): 2.8×10^−2 cm^2/Vs
[3]; bottom gate-bottom contact, 0.12 wt % solution in 1-methylnaphthalene mixed 1:1 with dodecylamine 20 μmol/L, PVP substrate, heated at 150° C. for 35 minutes, drain voltage 50 V
  field-effect mobility (μ): 3.0×10^−2 cm^2/Vs
[3]; bottom gate-bottom contact, 0.2 wt % solution in 1-methylnaphthalene mixed 1:1 with 4-methylbenzenethiol 20 μmol/L, PVP substrate, heated at 150° C. for 35 minutes, drain voltage 50 V
  field-effect mobility (μ): 3.2×10^−2 cm^2/Vs
[3]; bottom gate-bottom contact, 0.2 wt % solution in 1-methylnaphthalene mixed 1:1 with hexanethiol 200 μmol/L, PVP substrate, heated at 150° C. for 35 minutes, drain voltage 50 V
  field-effect mobility (μ): 3.3×10^−2 cm^2/Vs
[3]; bottom gate-bottom contact, 0.2 wt % solution in 1-methylnaphthalene mixed 1:1 with octadecanethiol 200 μmol/L, PVP substrate, heated at 150° C. for 35 minutes, drain voltage 50 V
  field-effect mobility (μ): 2.8×10^−2 cm^2/Vs
[3]; bottom gate-bottom contact, ink 0.06 wt % in 1-methylnaphthalene heated at 120° C., PVP substrate, heated at 150° C. for 35 minutes, drain voltage 50 V
  field-effect mobility (μ): 5.1×10^−3 cm^2/Vs
[3]; bottom gate-bottom contact, ink 0.1 wt % in 1-methylnaphthalene heated at 120° C., PVP substrate, heated at 150° C. for 35 minutes, drain voltage 50 V
  field-effect mobility (μ): 1.6×10^−2 cm^2/Vs
[3]; bottom gate-bottom contact, ink 0.1 wt % in 1-methylnaphthalene:methyl salicylate=1:1 heated at 120° C., PVP substrate, heated at 150° C. for 35 minutes, drain voltage 50 V
  field-effect mobility (μ): 2.6×10^−2 cm^2/Vs
[3]; ink 0.01 wt % in cyclohexylbenzene heated at 100° C., PVP substrate, heated at 100° C. for 35 minutes, drain voltage 50 V
  field-effect mobility (μ): 1.6×10^−1 cm^2/Vs
[3]; ink 0.01 wt % in cyclohexylbenzene:1-methylnaphthalene=1:0.3 heated at 100° C., PVP substrate, heated at 100° C. for 35 minutes, drain voltage 50 V
  field-effect mobility (μ): 1.8×10^−1 cm^2/Vs
[3]; ink 0.03 wt % in 1-methylnaphthalene heated at 100° C., PVP substrate, heated at 100° C. for 35 minutes, drain voltage 50 V
  field-effect mobility (μ): 6.0×10^−2 cm^2/Vs
[3]; ink 0.03 wt % in chlorobenzene heated at 100° C., PVP substrate, heated at 100° C. for 35 minutes, drain voltage 50 V
  field-effect mobility (μ): 3.1×10^−1 cm^2/Vs
[3]; ink 0.03 wt % in methyl benzoate heated at 100° C., PVP substrate, heated at 100° C. for 35 minutes, drain voltage 50 V
  field-effect mobility (μ): 3.8×10^−1 cm^2/Vs
[3]; ink 0.03 wt % in tetralin heated at 100° C., PVP substrate, heated at 100° C. for 35 minutes, drain voltage 50 V
  field-effect mobility (μ): 2.7×10^−1 cm^2/Vs

## FC(F)(F)c1ccccc1-c1ccc(-c2c3c(c(-c4ccc(-c5ccccc5C(F)(F)F)s4)c4nsnc24)N=S=N3)s1 [Compound (RR2), 4,8-bis[5-(2-(trifluoromethyl)phenyl)thiophene-2-yl]benzo[1,2-c:4,5-c′]bis[1,2,5]thiadiazole, reference compound]
[1]; [4]
  field-effect mobility (μ): 3.8×10^−1 cm^2/Vs
[1]; PS substrate, initial
  field-effect mobility (μ): 3.1×10^−2 cm^2/Vs
[2]; ink 0.3 wt % in mesitylene heated at 60° C., PS substrate, no annealing, drain voltage 100 V
  field-effect mobility (μ): did not have the transistor characteristics
[2]; ink 0.3 wt % in mesitylene heated at 60° C., PVP substrate, heated at 120° C. for 35 minutes, drain voltage 100 V
  field-effect mobility (μ): 5.1×10^−2 cm^2/Vs

## FC(F)(F)Oc1cccc(-c2ccc(-c3c4c(c(-c5ccc(-c6cccc(OC(F)(F)F)c6)s5)c5nsnc35)N=S=N4)s2)c1 [Compound (C1), 4,8-bis[5-(3-(trifluoromethoxy)phenyl)thiophene-2-yl]benzo[1,2-c:4,5-c′]bis[1,2,5]thiadiazole]
[1]; [4]
  field-effect mobility (μ): 5.6×10^−1 cm^2/Vs
[1]; HMDS-modified substrate, left in the atmosphere 14 days in total
  field-effect mobility (μ): 4.9×10^−1 cm^2/Vs
[1]; HMDS-modified substrate, left in the atmosphere 28 days in total
  field-effect mobility (μ): 4.8×10^−1 cm^2/Vs
[1]; HMDS-modified substrate, left in the atmosphere 60 days in total
  field-effect mobility (μ): 4.8×10^−1 cm^2/Vs
[1]; HMDS-modified substrate, left in the atmosphere 89 days in total
  field-effect mobility (μ): 4.7×10^−1 cm^2/Vs
[1]; HMDS-modified substrate, left in the atmosphere 118 days in total
  field-effect mobility (μ): 6.3×10^−1 cm^2/Vs
[1]; HMDS-modified substrate, left in the atmosphere for 7 days
  field-effect mobility (μ): 4.8×10^−1 cm^2/Vs
[1]; PS substrate, initial
  field-effect mobility (μ): 5.3×10^−1 cm^2/Vs
[1]; PS substrate, left in the atmosphere 14 days in total
  field-effect mobility (μ): 4.1×10^−1 cm^2/Vs
[1]; PS substrate, left in the atmosphere 28 days in total
  field-effect mobility (μ): 4.1×10^−1 cm^2/Vs
[1]; PS substrate, left in the atmosphere 60 days in total
  field-effect mobility (μ): 4.1×10^−1 cm^2/Vs
[1]; PS substrate, left in the atmosphere 89 days in total
  field-effect mobility (μ): 4.2×10^−1 cm^2/Vs
[1]; PS substrate, left in the atmosphere 118 days in total
  field-effect mobility (μ): 4.2×10^−1 cm^2/Vs
[1]; PS substrate, left in the atmosphere for 7 days
  field-effect mobility (μ): 4.1×10^−1 cm^2/Vs
[2]; ink 0.3 wt % in mesitylene heated at 130° C., CYC substrate, heated at 210° C. for 1 minute, drain voltage 100 V
  field-effect mobility (μ): 1.6×10^0 cm^2/Vs
[2]; [5]
  field-effect mobility (μ): 1.3×10^−1 cm^2/Vs
[2]; [6]
  field-effect mobility (μ): 6.1×10^−1 cm^2/Vs
[3]; bottom gate-bottom contact device on glass substrate, polyvinylphenol-melamine film, ink 0.2 wt % in methyl salicylate heated at 100° C., dried at 80° C., drain voltage 40 V
  field-effect mobility (μ): 1.0×10^−1 cm^2/Vs
[3]; bottom gate-top contact device on glass substrate, polyvinylphenol-melamine film, ink 0.2 wt % in methyl salicylate heated at 100° C., dried at 80° C., drain voltage 40 V
  field-effect mobility (μ): 6.3×10^−1 cm^2/Vs
[3]; ink 0.1 wt % in 1,2-dichlorobenzene heated at 130° C., drop-casted at 130° C. under nitrogen, dried at 80° C., PVP substrate, drain voltage 100 V
  field-effect mobility (μ): 2.0×10^−1 cm^2/Vs

## FC(F)(F)Oc1ccc(-c2ccc(-c3c4c(c(-c5ccc(-c6ccc(OC(F)(F)F)cc6)s5)c5nsnc35)N=S=N4)s2)cc1 [Compound (RC1), 4,8-bis[5-(4-(trifluoromethoxy)phenyl)thiophene-2-yl]benzo[1,2-c:4,5-c′]bis[1,2,5]thiadiazole, reference compound]
[1]; [4]
  field-effect mobility (μ): 5.8×10^−1 cm^2/Vs
[1]; PS substrate, initial
  field-effect mobility (μ): 1.2×10^0 cm^2/Vs
[2]; [5]
  field-effect mobility (μ): 7.0×10^−4 cm^2/Vs
[2]; [6]
  field-effect mobility (μ): did not have the transistor characteristics

## CCCCCCc1cc(-c2ccc(-c3c4c(c(-c5ccc(-c6ccc(C#N)c(CCCCCC)c6)s5)c5nsnc35)N=S=N4)s2)ccc1C#N [Compound (C8), 4,8-bis[5-(4-cyano-3-hexylphenyl)thiophene-2-yl]benzo[1,2-c:4,5-c′]bis[1,2,5]thiadiazole]
[2]; ink 0.1 wt % in chloroform heated at 60° C., CYC substrate, heated at 150° C. for 35 minutes, drain voltage 100 V
  field-effect mobility (μ): 4.3×10^−1 cm^2/Vs
[2]; [7]
  field-effect mobility (μ): 4.6×10^−1 cm^2/Vs
[2]; [8]
  field-effect mobility (μ): 2.0×10^0 cm^2/Vs
[2]; ink 0.1 wt % in chloroform heated at 60° C., PS substrate, heated at 120° C. for 35 minutes, drain voltage 100 V
  field-effect mobility (μ): 2.7×10^−1 cm^2/Vs
[2]; [9]
  field-effect mobility (μ): 7.3×10^−1 cm^2/Vs
[2]; ink 0.1 wt % in chloroform heated at 60° C., bare substrate, heated at 240° C. for 35 minutes, drain voltage 100 V
  field-effect mobility (μ): 7.1×10^−1 cm^2/Vs
[2]; ink 0.1 wt % in chloroform heated at 60° C., bare substrate, no annealing, drain voltage 100 V
  field-effect mobility (μ): 4.9×10^−1 cm^2/Vs
[3]; ink 0.03 wt % in 1,2-dichlorobenzene heated at 130° C., drop-casted at 100° C. under nitrogen, PVP substrate, drain voltage 100 V
  field-effect mobility (μ): 7.3×10^−1 cm^2/Vs

Some compounds share one wording; it may come from a single statement.
